Experimental data published in patent publication US20030061635A1, “Pollen-specific novel calmodulin-binding protein, NPG1 (No Pollen Germination1), promoter, coding sequences and methods for using the same” (priority 2001, published 2003).
No constants are given. Whether binding was seen depends on the method and setting. Some entries that bind do so weakly or less than the wild type.

Molecular target: Arabidopsis thaliana CaM isoform 2 (Arabidopsis thaliana) (UniProt P0DH97)
Assay: HRP-CaM (Arabidopsis CaM2) blot overlay

- binding: binds
B1: Arabidopsis KCBP 1.5C (bacterially expressed carboxyl-terminal region of kinesin-like calmodulin binding protein) (protein, UniProt Q9FHN8 821-1260, looked up)
chain: SDMLLLQNNLKELEELREMKEDIDRKNEQTAAILKMQGAQLAELEILYKEEQVLRKRYYNTIEDMKGKIRVYCRIRPLNEKESSEREKQMLTTVDEFTVEHPWKDDKRKQHIYDRVFDMRASQDDIFEDTKYLVQSAVDGYNVCIFAYGQTGSGKTFTIYGHESNPGLTPRATKELFNILKRDSKRFSFSLKAYMVELYQDTLVDLLLPKSARRLKLEIKKDSKGMVFVENVTTIPISTLEELRMILERGSERRHVSGTNMNEESSRSHLILSVVIESIDLQTQSAARGKLSFVDLAGSERVKKSGSAGCQLKEAQSINKSLSALGDVIGALSSGNQHIPYRNHKLTMLMSDSLGGNAKTLMFVNVSPAESNLDETYNSLLYASRVRTIVNDPSKHISSKEMVRLKKLVAYWKEQAGKKGEEEDLVDIEEDRTRKDEADS
